{
  "source": "PubChem BioAssay AID1918940",
  "about": "(Molecular Pharmacology Branch, DTP, NCI, 2023)",
  "system": "NCI-H211 complex spheroid viability",
  "assay": "Anticancer human tumor NCI-H211 cell line growth inhibition [LSD1];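 note: luminescent viability read after seven days of drug exposure; 100% = DMSO vehicle control viability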",
  "conditions": "compound 10 µM; stronger effect = lower value",
  "source_text": "Multicellular complex tumor spheroid response to LSD1 Inhibitor Iadademstat in combination with a variety of drugs and investigational agents in selected tumor cell lines\nThe current study was undertaken to assess response to LSD1 inhibitors in combination with standard-of-care drugs and investigational agents in solid tumor complex spheroid models as well as in the K-562 leukemia. Complex spheroids include a stromal component modeled by human endothelial cells (HUVEC) and fibroblasts modeled by human mesenchymal stem cells (MSCs). The concentration ranges selected for each drug and investigational agent were based upon clinically achievable concentrations if the clinical Cmax of the agent was known.\nCompounds. The drugs and investigational agents used in this study are listed on Table 1. All of the agents used, including staurosporine (NSC755774) and gemcitabine (NSC613327), were obtained from the Developmental Therapeutics Program, NCI. FDA-approved anticancer drugs are available from the NCI at http://dtp.nci.nih.gov/branches/dscb/oncology_drugset_explanation.html. Drugs and investigational agents were >95% pure by proton nuclear magnetic resonance (NMR) and liquid chromatography/mass spectrometry (LC/MS). […] If the clinical Cmax for an agent had not been determined, the highest concentration tested was 10 microM. […]",
  "note": "Where “and” joins values, the source holds several entries; their conditions need not be identical. Equal values may be shown once. Further values from the same series stand in other lists.",
  "data": [
    {"smiles": "NC1CCC(NC2CC2c2ccccc2)CC1", "note": "(stereo unspecified)", "values": [
      {"measurement": "viability, T/C", "result": "37.2% and 29.1%"}
    ]}
  ]
}
